Results as given in PubChem BioAssay AID540276 (National Center for Advancing Translational Sciences (NCATS), 2011).
The whole screen tested about 300,000 compounds, of which about 5,400 (1.8%) were called active. Inconclusive means that the source gave no clear call. Such entries were picked first, then a sample of the others. The call rests on the fitted dose curve; tested in HEK293 cells. A potency beside an inconclusive call is a rough fit, not a confirmed value.
Potency means the concentration at half of the fitted maximal effect.

Test: qHTS for inhibitors of binding or entry into cells for Marburg Virus
Conditions: Marburg virus pseudotyped entry inhibition, cell reporter; series mostly up to 37.8 µM
For `Cc1c(CCOC(=O)C23CC4CC(CC(C4)C2)C3)sc[n+]1CC#N`, the Potency was inconclusive: 35.5 µM [inhibitor, single point]. In the case of `COc1ccc(OC)c(NC(=O)/C=C/c2ccccc2[N+](=O)[O-])c1`, the Potency is reported as “inactive”. In the case of `CCOC(=O)c1sc2ccc(S(=O)(=O)N3CCCCC3)cc2c1N`, the Potency is reported as inconclusive: 29.1 µM [inhibitor, single point]. For `Cc1ccc2ncnc(Nc3ccccc3)c2c1`, the Potency was “inactive”. With `COCCn1c(SCC(=O)NC(C)c2ccccc2)nc2ccccc21` (stereo not drawn) the Potency was “inactive”. In the case of `CC1(C)CC2CC(C)(CN2c2ncnc3ccccc23)C1` (stereo not drawn), the Potency is reported as inconclusive: 8.2 µM [inhibitor, partial curve, poor fit]. With `CCN(CC)c1nc(Nc2ccccc2)nc(Oc2ccc(=O)[nH]n2)n1` the Potency was inconclusive: 14.6 µM [inhibitor, single point]. With `COc1ccc(NC(=O)C2C3CC/C=C\CCC32)cc1` (stereo not drawn) the Potency was inconclusive: 1.58 µM [activator, partial curve, poor fit]. In the case of `Cn1c(C(=O)NCc2cccnc2)cc2sc(Cl)cc21`, the Potency is reported as inconclusive: 16.4 µM [inhibitor, single point]. In the case of `COc1cccc(/C=N/NC(=O)c2cc(-c3cccn3C)n[nH]2)c1O`, the Potency is reported as active: 8.91 µM. For `Cc1ccccc1NC(=O)C(C)c1cccc(C(=O)c2ccccc2)c1` (stereo not drawn), the Potency was inconclusive: 6.51 µM [inhibitor, partial curve, poor fit]. In the case of `COc1ccccc1N1CCN(C(C)C(=O)Nc2ccc(S(=O)(=O)N3CCOCC3)cc2)CC1` (stereo not drawn), the Potency is reported as “inactive”. With `CCCC(O)(CCN(C)C)c1ccc(OC)cc1` (stereo not drawn) the Potency was “inactive”. With `O=C1CN=C(c2ccc(Br)cc2)c2oc3ccccc3c2N1` the Potency was inconclusive: 35.5 µM [inhibitor, single point]. With `CC1(C)CC(=O)C2=C(C1)N(c1ccccc1C#N)C(N)=C(C#N)C2c1cccs1` (stereo not drawn) the Potency was inconclusive: 2.24 µM [inhibitor, full curve, poor fit]. In the case of `O=Cc1cn(CC(=O)Nc2ccc(F)cc2)c2ccccc12`, the Potency is reported as inconclusive: 10 µM [inhibitor, single point]. For `CC(C)C(=O)Nc1cccc(NC(=O)c2cccc(Br)c2)c1`, the Potency was inconclusive: 35.5 µM [inhibitor, single point]. For `CC(C)(C)C1CCc2c(sc(NC(=O)Cn3nnc(-c4ccccc4F)n3)c2C#N)C1` (stereo not drawn), the Potency was “inactive”. With `CC(Oc1ccc(F)cc1)C(=O)Nc1cc(Cl)ccc1-n1cncn1` (stereo not drawn) the Potency was inconclusive: 6.31 µM [inhibitor, single point]. For `COC(=O)C1=C(C)NC(=S)NC1c1ccc(-c2cccc(Cl)c2)o1` (stereo not drawn), the Potency was inconclusive: 14.6 µM [inhibitor, partial curve, poor fit]. In the case of `COC(=O)C1=C(C)NC(C)=C([N+](=O)[O-])[C@H]1c1ccccc1C(F)(F)F`, the Potency is reported as “inactive”. In the case of `CC(NC(=O)CN1C(=O)NC(Cc2ccccc2)(Cc2ccccc2)C1=O)C12CC3CC(CC(C3)C1)C2` (stereo not drawn), the Potency is reported as inconclusive: 35.5 µM [inhibitor, single point]. For `COc1ccc(C2CC(c3c(-c4ccccc4)c4cc(Cl)ccc4[nH]c3=O)=NN2S(C)(=O)=O)cc1OC` (stereo not drawn), the Potency was inconclusive: 10 µM [inhibitor, partial curve, poor fit]. In the case of `CN(c1ccccc1)S(=O)(=O)c1ccc(Cl)c(C(=O)OCC(=O)c2c(N)n(C)c(=O)n(C)c2=O)c1`, the Potency is reported as inconclusive: 35.5 µM [inhibitor, single point]. In the case of `COc1cc(Cl)cc(/C=C/c2ccc3ccccc3n2)c1OC(C)=O`, the Potency is reported as inconclusive: 0.794 µM [activator, partial curve, poor fit]. For `CC(C)Oc1ccc(Oc2ccc(C(F)(F)F)cn2)cc1`, the Potency was “inactive”. In the case of `COc1ccc(NC(=O)CSCC(=O)Nc2nnc(C3CC3)s2)cc1`, the Potency is reported as inconclusive: 22.4 µM [activator, single point]. In the case of `CCO/N=C(/C)c1c(O)cc(C(C)(C)C)n(-c2ccccc2)c1=O`, the Potency is reported as inconclusive: 23.1 µM [activator, partial curve, poor fit]. For `COc1ccccc1NC=C1C(=O)OC2(CCCCC2)OC1=O`, the Potency was “inactive”. With `CNC(=O)c1ccccc1NC(=O)c1cccc(S(=O)(=O)N2CCC(C)CC2)c1` the Potency was inconclusive: 12.6 µM [inhibitor, partial curve, poor fit]. For `COc1ccc(NC(C)c2cc(Cl)ccc2O)cc1` (stereo not drawn), the Potency was inconclusive: 35.5 µM [activator, partial curve, poor fit]. For `COc1ccc(N(C)C(=O)C2CCN(S(=O)(=O)c3cccc4nonc34)CC2)c(OC)c1`, the Potency was inconclusive: 6.31 µM [inhibitor, full curve, poor fit]. For `O=c1c2ccccc2nc2sc3ccccc3n12`, the Potency was inconclusive: 6.31 µM [activator, single point]. For `Cc1ccc(S(=O)(=O)Nc2c(O)c3ccccc3oc2=O)cc1`, the Potency was inconclusive: 35.5 µM [inhibitor, single point]. In the case of `Cc1ccc(/C=C/C(=O)Nc2cc(S(N)(=O)=O)ccc2O)cc1`, the Potency is reported as inconclusive: 3.55 µM [activator, single point]. For `COC(=O)c1ccc(Oc2c(Cl)cccc2[N+](=O)[O-])cc1`, the Potency was “inactive”. In the case of `Cc1ccccc1NC(=O)CNc1ccc(Cl)c(C(F)(F)F)c1`, the Potency is reported as inconclusive: 35.5 µM [inhibitor, single point]. For `N=c1n(CCN2CCCCC2)c2ccccc2n1CC(=O)c1ccc(Cl)c(Cl)c1`, the Potency was active: 8.91 µM. With `CCOC(=O)C(=O)Nc1nc(-c2ccccc2)c(-c2ccccc2)o1` the Potency was inconclusive: 5.62 µM [activator, single point]. In the case of `O=C(CNC(=O)c1ccccc1F)NCCCN1CCCC1=O`, the Potency is reported as inconclusive: 20 µM [activator, single point]. For `COc1ccccc1N1CCN(C(=O)c2ccc(CN3CCc4ccccc4C3)cc2)CC1`, the Potency was inconclusive: 5.8 µM [inhibitor, partial curve, poor fit]. In the case of `NS(=O)(=O)c1ccc(NC(=O)COC(=O)c2ccc3c(c2)OCCO3)cc1`, the Potency is reported as “inactive”. In the case of `COc1ccc(CN2CCN(S(=O)(=O)c3ccccc3)CC2)cc1Br`, the Potency is reported as inconclusive: 29.1 µM [inhibitor, single point].
